Reference: US4550078A, “Method for the quantitative determination of individual polyamine components in a mixture” (Amano Seiyaku Kabushiki Kaisha, priority 1982, dated 1985)

Assay: Example 3: determination of polyamines in red blood corpuscles, steps A1 to G1

## NCCCNCCCCNCCCN [spermine]
  Concentration in red blood corpuscles: 7.0 µM

## NCCCCNCCCN [spermidine]
  Concentration in red blood corpuscles: 25.6 µM

## NCCCCN [putrescine]
  Concentration in red blood corpuscles: 1.2 µM

## CC(=O)NCCCCNCCCN [N^8 -acetylspermidine]
  Concentration in red blood corpuscles: 2.3 µM
